Source: patent publication US20250129170A1
Changes are numbered by the printed parent chain. Results are given in words; binding and its absence hold for the method and conditions named. Some entries that bind do so weakly or less than the wild type. One block for each binder: values may come before it.

By UniProt entry, the sequences of proteins in these tests, tags left out. Where a name states a change or a piece, a line headed by the entry shows the natural chain unless it says otherwise. Residues count along the entry.
UniProt P19235, residues 25-250: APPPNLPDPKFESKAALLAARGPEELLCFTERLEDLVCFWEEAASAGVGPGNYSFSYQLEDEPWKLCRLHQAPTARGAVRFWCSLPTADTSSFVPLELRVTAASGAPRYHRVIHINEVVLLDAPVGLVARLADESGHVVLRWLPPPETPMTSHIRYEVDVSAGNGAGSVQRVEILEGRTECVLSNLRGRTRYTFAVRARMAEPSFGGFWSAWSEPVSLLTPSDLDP
UniProt P32927, residues 17-443: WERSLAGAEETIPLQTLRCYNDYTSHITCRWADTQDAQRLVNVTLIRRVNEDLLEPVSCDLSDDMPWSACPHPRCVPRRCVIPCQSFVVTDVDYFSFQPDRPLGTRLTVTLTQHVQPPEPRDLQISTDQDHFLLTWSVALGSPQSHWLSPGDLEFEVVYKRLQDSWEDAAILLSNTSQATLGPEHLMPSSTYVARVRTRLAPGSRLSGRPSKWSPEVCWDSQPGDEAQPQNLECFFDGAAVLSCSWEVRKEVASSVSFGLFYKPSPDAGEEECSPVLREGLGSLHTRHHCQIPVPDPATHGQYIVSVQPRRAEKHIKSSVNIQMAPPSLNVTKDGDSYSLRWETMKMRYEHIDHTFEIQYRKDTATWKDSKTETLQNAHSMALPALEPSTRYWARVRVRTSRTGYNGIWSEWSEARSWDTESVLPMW

Columns and labels:
[1] = target: recombinant hEPOR-Fc (SinoBiological, Cat #10707-H02H) (human) (UniProt P19235); test: B cells sorted by flow cytometry on labeled hEPOR-Fc, single cell sequencing
[2] = target: hCD131-Fc (IME021, inhouse) (human) (UniProt P32927); test: B-cell sorting with fluorescent hCD131-Fc; single-cell sequencing

B1: anti-EPOR antibody clonotype457 (antibody, V domains shown)
VH: EVQLVESGGGLVQPGRSLRLSCAASGFTFDDYAMHWVRQAPGKGLEWVSGISWNSGSIGYADSVKGRFTISRDNAKNSLYLQMNSLRAEDTALYYCAKDSGSYYFDYWGQGTLVTVSS
VL: QSALTQPPSASGSPGQSVTISCTGTSSDVGGYNYVSWYQQHPGKAPKLMIYEVSKRPSGVPDRFSGSKSGNTASLTVSGLQAEDEADYYCSSYAGSNNFVVFGGGTKLTVL
binding [1]: binds

B3: anti-EPOR antibody clonotype498 (antibody, V domains shown)
VH: QVQLVQSGAEVKKPGSSVKVPCKASGDTFSNFAINWVRQAPGQGLEWMGGIIPIFATANYAQNFQGRVTITADESTSAAYMEVSSLRFEDTAVYYCARTPLGIGRSFDLWGQGTMVTVSS
VL: SYVLTQPPSVSVAPGKTARITCGGNNIGSKSVHWYQQTPGQAPVLVIYYDSDRPSGIPDRFSGSNSGNTATLTISRVEAGDEADYYCQVWDSNSDHWVFGGGTKLTVL
binding [1]: binds

B4: clonotype248 (Table 6, anti-CD131) (antibody, V domains shown)
VH: QVQLQQSGPGLVKPSQTLSLTCAISGDSVSSNSAAWNWIRQSPSRGLEWLGRTYYRSKWYNDYAVSVKSRITINPDTSKNQFSLQLNSVTPEDTAVYYCAREEIVGATTAFDIWGQGTMVTVSS
VL: B3 VL with T38K, D59E, N93S
binding [2]: binds

B5: anti-EPOR antibody clonotype460 (antibody, V domains shown)
VH: EVQLVESGGGLVQPGGSLRLSCAASGFTFSSYWMSWVRQAPGKGLEWVANIKQDGSEKYYVDSVKGRFTISRDNAKNSLYLQMNSLRAEDTAVYYCARDSNWGVFDYWGQGTLVTVSS
VL: QAVLTQPASLSASPGASASLTCTLRSGINVGTYRIYWYQQKPGSPPQYLLRYKSDSDKQQGSGVPSRFSGSKDASANAGILLISGLQSEDEADYYCMIWHSSAWVFGGGTKLTVL
binding [1]: binds

B8: anti-EPOR antibody clonotype455 (antibody, V domains shown)
VH: EVQLVESGGGLVQPGGSLRLSCAASGFTFSSYWMHWVRQAPGKGLVWVSRINSDGSSTSYADSVKGRFTISRDNAKNTLYLQMNSLRAEDTAVYYCARDEQLVPFDIWGQGTMVTVSS
VL: QSALTQPASVSGSPGQSITISCTGTSSDVGGYNYVSWYQQHPGKAPKLMIYDVSKRPSGVSNRFSGSKSGNTASLTISGLQAEDEADYYCCSYAGSSTLVFGGGTKLTVL
binding [1]: binds

B9: clonotype251 (Table 6, anti-CD131) (antibody, V domains shown)
VH: QVQLQQWGAGLLKPSETLSLTCAVYGGSFSGHYWNWIRQPPGKGLEWIGEINHSGFTNYNPSLKSRVTISVDTPKNQFSLNLSSVTAADTAVYYCAREGLTGHVFDIWGQGTMVTVSS
VL: B8 VL with G31V, G43T, D52E, K55N, C91S, A94T, G95S, S97I, L99W
binding [2]: binds

B10: clonotype252 (Table 6, anti-CD131) (antibody, V domains shown)
VH: QVQVQQSGPGLVKPSQTLSLTCAISGDSVSSNSAAWNWIRQSPSRGLEWLGRTYYRSKWYNDFAVSVKSRITINPDTSKNQFSLQLNSVTPEDTAVYYCARGGGSGSYDWFDPWGQGTLVTVSS
VL: B8 VL with D52E, K55N, C91S, A94T, G95S, L99W
binding [2]: binds

B11: anti-EPOR antibody clonotype478 (antibody, V domains shown)
VH: QVQLVQSGAEVKKPGASVKVSCKASGYTFTSYYMHWVRQAPGQGLEWMGIINPSGGSTSYAQKFQGRVTMTRDTSTSTVYMELSSLRSEDTAVYYCARRTGTTHYFDYWGQGTLVTVSS
VL: B8 VL
binding [1]: binds

B12: clonotype215 (Table 6, anti-CD131) (antibody, V domains shown)
VH: EVQLVESGGTLVQPGGSLTLSCAASGFTFSDSAMHWVRQASGKGLEWVGRIRGKPNTYATAYAASVKGRFTISKDDSKNTAFLQMNSLKTEDRAVYYCTRRYNWNDVGFDYWGQGTLVTVSS
VL: B8 VL with G31A, L48F, S97N, L99Y, G103T, K106R, L107V
binding [2]: binds

B15: clonotype213 (Table 6, anti-CD131) (antibody, V domains shown)
VH: QVQLVQSGSELKKPGASVKVSCKASGYTVTRHALNWVRQAPGQGLEWMGWINTNTGTPTYAQGFIGRFVFTLDTSVSTAYLQINSLKAEDTAVYYCARDQTPSDHYYYMDVWGKGTTVTVSS
VL: SSELTQDPAVSVALGQTVRITCQGDSLRSYYASWYQQKPGQAPVLVIYGKNNRPSGIPDRFSGSSSGNTASLTITGAQAEDEADYYCNSRDSSGNHYVFGTGTKVTVL
binding [2]: binds

B16: clonotype214 (Table 6, anti-CD131) (antibody, V domains shown)
VH: LAHLVQSGAEVKRPGASVKVSCKAFGYAFRGQHIHWVRQAPGQGLEWMGWIRPNSGDTNYSQKFQGRVTMTRDTSITTAYMELTRLRSDDSAVYYCARDRGITMRLDNMDVWGKGTMVTVSS
VL: B15 VL with Y97L, T101G, V105L
binding [2]: binds

B17: anti-EPOR antibody clonotype468 (antibody, V domains shown)
VH: QVQLVQSGAEVKKPGASVKVSCKASGYTFTSYGISWVRQAPGQGLEWMGWISAYNGNTNYAQKLQGRVTMTTDTSTNTAYMELRSLRSDDTAVYYCARQITGTRGFDYWGQGTLVTVSS
VL: B15 VL with Y97W, T101G, V105L
binding [1]: binds

B21: anti-EPOR antibody clonotype458 (antibody, V domains shown)
VH: QVQLVESGGGLVKPGGSLRLSCAASGFTFSDYYMSWIRQAPGKGLEWVSYISSSGSTIYYADSVKGRFTISRDNAKNSLYLQMNSLRAEDTAVYYCARDGQLWSFDYWGQGTLVTVSS
VL: QSVLTQPPSVSGAPGQRVTISCTGSSSNIGAGYDVHWYQQLPGTAPKLLIYGNSNRPSGVPDRFSGSKSGTSASLAITGLQAEDEADYYCQSYDSSLSDVVFGGGTKLTVL
binding [1]: binds

B23: clonotype228 (Table 6, anti-CD131) (antibody, V domains shown)
VH: QVQLVQSGTEMKKPGASVKVSCKASGYTFTTYGISWVRQAPGQGLEWMGWISAYNGNTNYAQKLQARVTMTTDTSTNTAYMELRSLRSDDTAVYYCARSGYNWKYDYYYMDVWGKGTTVTVSS
VL: QSVLTQPPSVSGAPGQRVTISCTGNSSNIGADYDVQWYQQFPGTAPKLLIYANIIRPSGVPDRFSGSKSGTSASLAITGLQAEDEADYYCQSYDSSLSGSLVFGGGTKLTVL
binding [2]: binds

Further lines, results first:

binding [1]: binds
B2: anti-EPOR antibody clonotype480 (antibody, V domains shown)
VH: EVQLVQSGAEVKKPGESLKISCKGSGYSFTSYWIGWVRQMPGKGLEWMGIIYPGDSDTRYSPSFQGQVTISADKSISTAYLQWSSLKASDTAMYYCARFLGSSYYFDYWGQGTLVTVSS
VL: B1 VL with V100E

binding [1]: binds
B6: anti-EPOR antibody clonotype461 (antibody, V domains shown)
VH: B5 VH with S100R, N101L, W102T, V104D, F105L
VL: B5 VL

binding [1]: binds
B7: anti-EPOR antibody clonotype481 (antibody, V domains shown)
VH: EVQLVESGGGLVQPGGSLRLSCAASGFTFSSYSMNWVRQAPGKGLEWVSYISSSSSTIYYADSVKGRFTISRDNAKNSLYLQMNSLRDEDTAVYYCARGGAAAGAFDIWGQGTMVTVSS
VL: B5 VL

binding [1]: binds
B13: anti-EPOR antibody clonotype469 (antibody, V domains shown)
VH: QVQLVQSGAEVKKPGASVKVSCKASGYTFTSYDINWVRQATGQGLEWMGWMNPNSGNTGYAQKFQGRVTMTRNTSISTAYMELSSLRSEDTAVYYCARMGYSNYPFDYWGQGTLVTVSS
VL: SYELTQPPSVSVSPGQTARITCSGDALPKKYAYWYQQKSGQAPVLVIYEDSKRPSGIPERFSGSSSGTMATLTISGAQVEDEADYYCYSTDSSGNHVVFGGGTKLTVL

binding [1]: binds
B14: anti-EPOR antibody clonotype466 (antibody, V domains shown)
VH: EVQLVESGGGLVQPGGSLRLSCAASGFTFSIYWMSWVRQAPGKGLEWVATIKEDGSEKYYVDSVKGRFTISRDNAKNSLFLQMNSLRADDTAVYYCARDSNFLYYFDYWGQGDLVTVSS
VL: B15 VL with V10L, Y30F, N51S, S65G, Y85F, S92T, H96Y, Y97L, T101G, V105L

binding [1]: binds
B18: anti-EPOR antibody clonotype470 (antibody, V domains shown)
VH: B11 VH with A9S, R99G, T100I, G101P, H104V, Y105T, F106P
VL: B15 VL with Y97L, T101G, V105L

binding [1]: binds
B19: anti-EPOR antibody clonotype490 (antibody, V domains shown)
VH: QITLKESGPTLVKPTQTLTLTCTFSGFSLSTSGVGVGWIRQPPGKALEWLALIYWSDDKRYSPSLKNRLTITKDTSKNQVVLTMTNMDPLATATYYCAQTGYNSWSFDYWGQGTLVTVSS
VL: SYELTQPPSVSVSPGQTARITCSADALPNQYAYWYQQKPGQAPVLVIYKDSERPSGIPERFSGSSSGTTVTLTISGVQAEDEADYYCQSADSSGTWVFGGGTKLTVL

binding [2]: binds
B20: clonotype220 (Table 6, anti-CD131) (antibody, V domains shown)
VH: EVQLVESGGGLVQPGRSLRLSCAASGFTFDDYAMHWVRQAPGKGLEWVSGISRNSGSVGYADSVRGRFTISRDNAKNSLYLQMNSLRAEDTALYYCAKGGYDFWSGYYPFDPWGQGTLVTVSS
VL: SYELTQPLSVSVALGQTARITCGENNIVNKNVHWYQQKPGQAPVLVIYRDGNRPSGIPERFSGSNSGNTATLTISRAQAGDEADYYCQVWDNNTPWVFGGGTKLTVL

binding [2]: binds
B22: clonotype226 (Table 6, anti-CD131) (antibody, V domains shown)
VH: QVQLVQSGSELKKPGASVMVSCKASGYTFTRNGINWLRQAPGQGLEWMGWIDTHTGNPTYVQGFTGRFVFSLDTSVNTAYLQISSLRAEDTAVYYCAKDRTGYYHYYYFMDVWGKGTAVTVSS
VL: QSVLTQPPSASGAPGQRVTMSCSGSSSNIERTAVNWYSHLPGAAPKLLIYSNDQRPLGVPDRFAGSKSGSSASLAISGLQSEDEAAYFCAAWDDSLNGWLFGGGTKLTVL
